# Laboratory results taken from patent US20140011196.
# Molecular target: T1, TaqI restriction endonuclease (Thermus aquaticus) (UniProt P14386)
# T1 sequence: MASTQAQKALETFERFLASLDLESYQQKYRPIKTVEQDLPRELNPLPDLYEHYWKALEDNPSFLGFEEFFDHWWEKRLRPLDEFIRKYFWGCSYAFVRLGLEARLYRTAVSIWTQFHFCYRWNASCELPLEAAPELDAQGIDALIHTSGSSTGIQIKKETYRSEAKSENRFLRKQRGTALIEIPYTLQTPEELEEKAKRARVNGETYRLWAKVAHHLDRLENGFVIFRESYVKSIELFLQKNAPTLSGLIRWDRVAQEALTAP
# Test: enzyme reaction in vitro
# Conditions: cut T/CGA, 2-nt cohesive ends; 5 mM MgCl2, 65 C; purified recombinant protein
sequence,measurement,value
AGCACTCTAGAGGATCCCCGGGTACCGAGCTCGAATTCACTGGCCGTCGTTTTAC (double strand) [55 bp TCGA oligonucleotide],activity on this sequence,active

# Where a protein sequence is shown, tags need not be part of it.
